This is one part of the list.
Compound: Cc1cc(ccc1-c1ccccc1)C(=O)N1CCCN(CC1)C(=O)CCl [compound 10]
Assay: probe-labelled cysteine peptide fold change vs DMSO (competition) (log2 fold change); higher = less target engagement (more negative = stronger competition)
Conditions: THP-1, incubation time: 4 h
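Note: competitive profiling in live THP-1 cells: cysteine peptides tagged with an iodoacetamide desthiobiotin (IA-DTB) probe, intensity after compound treatment relative to DMSO-treated cells.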

By UniProt entry, the sequences of proteins in these tests, tags left out. Where a name states a change or a piece, a line headed by the entry shows the natural chain unless it says otherwise.
UniProt Q9UJX5, whole entry, looked up: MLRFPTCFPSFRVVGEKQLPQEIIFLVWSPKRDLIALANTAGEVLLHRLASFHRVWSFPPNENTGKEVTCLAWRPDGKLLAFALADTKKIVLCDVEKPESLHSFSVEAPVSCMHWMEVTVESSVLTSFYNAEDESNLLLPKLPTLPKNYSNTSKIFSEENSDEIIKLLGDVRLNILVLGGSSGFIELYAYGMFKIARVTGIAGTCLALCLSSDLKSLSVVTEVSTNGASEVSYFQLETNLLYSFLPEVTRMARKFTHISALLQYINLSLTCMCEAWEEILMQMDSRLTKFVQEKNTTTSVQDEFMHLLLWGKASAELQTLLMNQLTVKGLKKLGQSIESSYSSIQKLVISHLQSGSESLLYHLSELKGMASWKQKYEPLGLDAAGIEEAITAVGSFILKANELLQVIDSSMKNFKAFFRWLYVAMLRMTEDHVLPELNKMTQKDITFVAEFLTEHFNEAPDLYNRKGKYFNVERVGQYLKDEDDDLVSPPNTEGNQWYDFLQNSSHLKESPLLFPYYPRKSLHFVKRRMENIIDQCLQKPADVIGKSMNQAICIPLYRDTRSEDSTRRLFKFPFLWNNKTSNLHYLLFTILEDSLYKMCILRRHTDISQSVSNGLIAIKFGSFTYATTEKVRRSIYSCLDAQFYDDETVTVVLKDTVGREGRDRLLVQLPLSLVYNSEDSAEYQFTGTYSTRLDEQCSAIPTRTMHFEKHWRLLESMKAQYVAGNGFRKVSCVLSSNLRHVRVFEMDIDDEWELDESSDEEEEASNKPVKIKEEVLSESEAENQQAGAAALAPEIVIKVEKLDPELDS
UniProt Q9NYG5, whole entry, looked up: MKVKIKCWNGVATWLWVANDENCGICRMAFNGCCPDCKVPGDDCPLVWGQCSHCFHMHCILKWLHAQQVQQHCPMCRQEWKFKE
UniProt P23526: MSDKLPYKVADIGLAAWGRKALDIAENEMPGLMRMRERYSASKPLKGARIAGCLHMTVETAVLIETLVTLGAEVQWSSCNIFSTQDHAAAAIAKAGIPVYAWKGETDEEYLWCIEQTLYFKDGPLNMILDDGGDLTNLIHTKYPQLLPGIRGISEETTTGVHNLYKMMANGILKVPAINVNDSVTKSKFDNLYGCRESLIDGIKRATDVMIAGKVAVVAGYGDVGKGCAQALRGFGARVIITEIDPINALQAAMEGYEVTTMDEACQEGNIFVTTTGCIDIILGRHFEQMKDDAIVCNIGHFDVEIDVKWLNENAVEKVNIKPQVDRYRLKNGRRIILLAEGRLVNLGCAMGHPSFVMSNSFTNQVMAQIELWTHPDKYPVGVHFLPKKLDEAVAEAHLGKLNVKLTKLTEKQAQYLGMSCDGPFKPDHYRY
UniProt O43823: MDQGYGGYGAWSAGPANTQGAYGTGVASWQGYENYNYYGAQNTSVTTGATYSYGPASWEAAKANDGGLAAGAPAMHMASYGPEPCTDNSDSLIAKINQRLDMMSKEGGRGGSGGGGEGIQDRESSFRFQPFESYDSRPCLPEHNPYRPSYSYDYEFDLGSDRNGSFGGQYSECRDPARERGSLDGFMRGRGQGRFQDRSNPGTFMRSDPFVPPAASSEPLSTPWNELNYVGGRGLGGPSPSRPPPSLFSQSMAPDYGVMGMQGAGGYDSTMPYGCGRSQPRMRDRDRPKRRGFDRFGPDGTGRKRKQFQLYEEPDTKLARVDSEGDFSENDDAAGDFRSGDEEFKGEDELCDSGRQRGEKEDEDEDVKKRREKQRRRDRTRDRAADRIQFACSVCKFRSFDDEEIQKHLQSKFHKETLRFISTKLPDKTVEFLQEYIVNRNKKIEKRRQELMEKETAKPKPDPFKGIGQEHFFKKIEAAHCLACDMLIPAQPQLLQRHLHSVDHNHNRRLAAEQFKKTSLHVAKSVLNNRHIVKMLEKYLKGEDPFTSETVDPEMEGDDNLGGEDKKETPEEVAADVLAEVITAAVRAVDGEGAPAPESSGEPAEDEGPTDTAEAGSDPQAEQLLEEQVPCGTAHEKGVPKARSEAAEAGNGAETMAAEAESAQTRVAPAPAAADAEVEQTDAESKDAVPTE
UniProt O43865, whole entry, looked up: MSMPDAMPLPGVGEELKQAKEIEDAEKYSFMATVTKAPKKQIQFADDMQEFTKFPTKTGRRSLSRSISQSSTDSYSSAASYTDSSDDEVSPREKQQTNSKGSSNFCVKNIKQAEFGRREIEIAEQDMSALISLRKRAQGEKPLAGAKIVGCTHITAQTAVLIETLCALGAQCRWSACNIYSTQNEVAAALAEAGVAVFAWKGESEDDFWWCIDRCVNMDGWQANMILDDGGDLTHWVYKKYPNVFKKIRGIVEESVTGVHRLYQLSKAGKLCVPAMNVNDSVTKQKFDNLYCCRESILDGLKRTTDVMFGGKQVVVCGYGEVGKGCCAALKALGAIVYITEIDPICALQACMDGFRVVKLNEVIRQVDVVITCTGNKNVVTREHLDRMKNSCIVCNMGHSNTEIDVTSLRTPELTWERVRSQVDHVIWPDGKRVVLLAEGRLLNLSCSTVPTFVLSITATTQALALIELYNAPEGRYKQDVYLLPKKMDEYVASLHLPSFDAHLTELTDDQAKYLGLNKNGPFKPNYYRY
UniProt O00116: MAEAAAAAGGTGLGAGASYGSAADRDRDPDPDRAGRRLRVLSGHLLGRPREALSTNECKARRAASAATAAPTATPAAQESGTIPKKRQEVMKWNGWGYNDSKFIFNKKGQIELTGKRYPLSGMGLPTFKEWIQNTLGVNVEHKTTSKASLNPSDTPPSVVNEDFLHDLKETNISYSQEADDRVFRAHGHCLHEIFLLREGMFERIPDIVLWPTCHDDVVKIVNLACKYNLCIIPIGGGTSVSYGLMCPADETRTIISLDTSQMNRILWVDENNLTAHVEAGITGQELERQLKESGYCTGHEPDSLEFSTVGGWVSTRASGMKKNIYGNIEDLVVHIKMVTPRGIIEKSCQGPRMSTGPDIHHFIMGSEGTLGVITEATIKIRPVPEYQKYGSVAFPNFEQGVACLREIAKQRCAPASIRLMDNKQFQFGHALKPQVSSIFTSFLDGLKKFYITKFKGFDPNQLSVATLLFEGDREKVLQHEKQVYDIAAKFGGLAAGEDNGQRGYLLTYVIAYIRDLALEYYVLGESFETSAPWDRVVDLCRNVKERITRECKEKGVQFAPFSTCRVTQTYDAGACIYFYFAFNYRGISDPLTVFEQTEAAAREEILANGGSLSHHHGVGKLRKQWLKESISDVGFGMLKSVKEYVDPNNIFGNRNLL
UniProt Q8IZ83: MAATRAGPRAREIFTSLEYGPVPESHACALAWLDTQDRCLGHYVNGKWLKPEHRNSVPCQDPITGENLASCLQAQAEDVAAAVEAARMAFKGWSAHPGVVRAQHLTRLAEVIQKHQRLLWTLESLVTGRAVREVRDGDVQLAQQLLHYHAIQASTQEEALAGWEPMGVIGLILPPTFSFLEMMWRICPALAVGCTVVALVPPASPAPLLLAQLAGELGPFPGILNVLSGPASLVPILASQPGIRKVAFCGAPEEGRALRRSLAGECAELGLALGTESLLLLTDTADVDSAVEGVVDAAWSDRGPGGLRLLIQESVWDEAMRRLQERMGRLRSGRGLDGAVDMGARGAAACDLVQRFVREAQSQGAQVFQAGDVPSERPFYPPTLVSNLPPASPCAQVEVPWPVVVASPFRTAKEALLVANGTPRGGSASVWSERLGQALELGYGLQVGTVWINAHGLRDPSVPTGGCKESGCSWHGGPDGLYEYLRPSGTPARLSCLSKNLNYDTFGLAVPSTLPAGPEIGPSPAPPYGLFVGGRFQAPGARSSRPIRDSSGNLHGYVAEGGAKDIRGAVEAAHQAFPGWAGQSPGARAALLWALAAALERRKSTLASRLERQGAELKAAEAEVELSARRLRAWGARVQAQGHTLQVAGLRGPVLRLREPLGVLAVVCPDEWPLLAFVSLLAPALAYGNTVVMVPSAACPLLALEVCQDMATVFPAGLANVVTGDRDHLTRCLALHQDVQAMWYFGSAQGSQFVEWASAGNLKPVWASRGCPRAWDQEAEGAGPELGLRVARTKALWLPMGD
UniProt P04075: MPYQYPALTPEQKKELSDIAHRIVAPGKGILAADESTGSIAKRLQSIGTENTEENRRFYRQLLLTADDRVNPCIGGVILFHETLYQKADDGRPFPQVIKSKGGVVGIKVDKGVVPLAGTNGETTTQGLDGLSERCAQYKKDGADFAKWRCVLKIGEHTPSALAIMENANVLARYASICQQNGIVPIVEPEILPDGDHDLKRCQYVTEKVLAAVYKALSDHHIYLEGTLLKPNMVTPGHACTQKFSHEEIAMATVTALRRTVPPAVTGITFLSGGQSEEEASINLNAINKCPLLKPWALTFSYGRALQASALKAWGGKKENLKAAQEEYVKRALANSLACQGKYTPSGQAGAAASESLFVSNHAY
UniProt P54886: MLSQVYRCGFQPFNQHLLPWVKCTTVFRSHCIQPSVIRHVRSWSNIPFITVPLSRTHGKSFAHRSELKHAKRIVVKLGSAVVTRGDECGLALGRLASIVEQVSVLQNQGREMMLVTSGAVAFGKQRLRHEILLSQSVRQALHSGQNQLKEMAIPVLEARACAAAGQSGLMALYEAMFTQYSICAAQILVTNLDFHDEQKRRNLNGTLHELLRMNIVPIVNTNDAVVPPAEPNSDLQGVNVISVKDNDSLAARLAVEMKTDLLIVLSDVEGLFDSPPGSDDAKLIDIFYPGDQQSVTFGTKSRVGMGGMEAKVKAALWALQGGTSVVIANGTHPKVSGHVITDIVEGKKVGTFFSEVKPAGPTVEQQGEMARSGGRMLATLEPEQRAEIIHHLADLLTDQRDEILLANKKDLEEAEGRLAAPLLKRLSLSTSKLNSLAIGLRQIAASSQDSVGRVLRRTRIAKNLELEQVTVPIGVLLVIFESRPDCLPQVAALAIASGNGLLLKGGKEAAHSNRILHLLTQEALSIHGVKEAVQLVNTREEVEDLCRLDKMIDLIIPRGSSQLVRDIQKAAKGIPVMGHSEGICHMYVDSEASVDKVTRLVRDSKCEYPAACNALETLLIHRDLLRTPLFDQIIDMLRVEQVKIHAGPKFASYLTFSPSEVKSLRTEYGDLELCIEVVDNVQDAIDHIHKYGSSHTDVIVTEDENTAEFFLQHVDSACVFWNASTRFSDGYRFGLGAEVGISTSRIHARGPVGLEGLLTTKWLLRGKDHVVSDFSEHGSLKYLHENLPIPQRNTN
UniProt P05091: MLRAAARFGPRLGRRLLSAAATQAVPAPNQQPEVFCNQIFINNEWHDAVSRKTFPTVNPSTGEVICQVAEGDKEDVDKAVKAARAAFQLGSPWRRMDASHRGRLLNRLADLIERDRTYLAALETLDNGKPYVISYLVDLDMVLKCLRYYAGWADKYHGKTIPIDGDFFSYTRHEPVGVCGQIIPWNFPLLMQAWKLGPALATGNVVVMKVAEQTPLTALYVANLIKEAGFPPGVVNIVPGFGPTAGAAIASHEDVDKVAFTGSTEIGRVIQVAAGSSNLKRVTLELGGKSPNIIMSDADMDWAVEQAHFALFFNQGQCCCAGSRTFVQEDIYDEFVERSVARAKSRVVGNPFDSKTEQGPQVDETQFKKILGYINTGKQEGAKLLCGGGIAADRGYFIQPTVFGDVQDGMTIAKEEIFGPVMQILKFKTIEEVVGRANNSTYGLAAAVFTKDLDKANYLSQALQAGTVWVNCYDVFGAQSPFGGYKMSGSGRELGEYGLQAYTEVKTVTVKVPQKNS
UniProt P13196: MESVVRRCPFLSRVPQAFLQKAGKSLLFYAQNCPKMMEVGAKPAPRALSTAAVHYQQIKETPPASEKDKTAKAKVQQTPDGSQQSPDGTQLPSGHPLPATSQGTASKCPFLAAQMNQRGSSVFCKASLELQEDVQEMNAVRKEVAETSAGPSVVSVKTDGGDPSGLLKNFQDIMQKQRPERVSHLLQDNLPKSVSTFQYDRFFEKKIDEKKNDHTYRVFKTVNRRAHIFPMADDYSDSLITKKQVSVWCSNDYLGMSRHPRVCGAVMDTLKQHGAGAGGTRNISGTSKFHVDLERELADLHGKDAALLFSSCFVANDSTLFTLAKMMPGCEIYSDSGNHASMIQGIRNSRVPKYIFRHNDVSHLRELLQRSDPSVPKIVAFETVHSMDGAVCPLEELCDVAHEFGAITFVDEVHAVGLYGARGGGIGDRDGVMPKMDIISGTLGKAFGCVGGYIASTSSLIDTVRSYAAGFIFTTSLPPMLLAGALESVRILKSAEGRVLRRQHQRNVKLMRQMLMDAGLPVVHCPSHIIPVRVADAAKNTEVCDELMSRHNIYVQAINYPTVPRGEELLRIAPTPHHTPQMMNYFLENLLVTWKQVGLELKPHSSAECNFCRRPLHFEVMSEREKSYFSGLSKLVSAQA
UniProt Q9UM13, whole entry, looked up: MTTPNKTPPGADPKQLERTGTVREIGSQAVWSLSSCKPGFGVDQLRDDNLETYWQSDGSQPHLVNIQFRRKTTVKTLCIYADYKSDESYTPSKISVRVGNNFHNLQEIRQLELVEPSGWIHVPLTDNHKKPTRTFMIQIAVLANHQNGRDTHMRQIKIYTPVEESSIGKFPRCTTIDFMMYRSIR

Row | Target | probe-labelled cysteine peptide fold change (10 µM) | probe-labelled cysteine peptide fold change (50 µM)
1 | ANAPC4_Q9UJX5_732_KVSCVLSSNLR (UniProt Q9UJX5) | 0.0537 | -0.0159
2 | ANAPC5_Q9UJX4_670_CQVASAASYDQPK (UniProt Q9UJX4) | 0.0716 | -0.00822
3 | AKR1B1_P15121_45_HIDCAHVYQNENEVGVAIQEK (UniProt P15121) | 0.0652 | -0.0317
4 | ANAPC11_Q9NYG5_73+76_WLHAQQVQQHCPMCR (UniProt Q9NYG5) | -0.342 | 0.706
5 | ALDH9A1_P49189_443_VVAELQAGTCFINNYNVSPVELPFGGYKK (UniProt P49189) | 0.0937 | 0.103
6 | ALAD_P13716_75_CVLIFGVPSR (UniProt P13716) | 0.166 | 0.185
7 | AHCY_P23526_195_FDNLYGCR (UniProt P23526) | -0.0463 | 0.236
8 | AHNAK_Q09666_5502_SSGCDVNLPGVNVK (UniProt Q09666) | -0.0741 | -0.284
9 | AKAP8_O43823_173_NGSFGGQYSECR (UniProt O43823) | -0.0927 | 0.0282
10 | AHCYL1_O43865_151_IVGCTHITAQTAVLIETLCALGAQCR (UniProt O43865) | 0.204 | 0.206
11 | AKR1A1_P14550_187+200_QIDDILSVASVRPAVLQVECHPYLAQNELIAHCQAR (UniProt P14550) | -0.0187 | -0.0103
12 | AGPS_O00116_190_AHGHCLHEIFLLR (UniProt O00116) | 0.0702 | -0.206
13 | ALDH9A1_P49189_173_SAPALACGNAMVFK (UniProt P49189) | 0.0109 | 0.275
14 | ANKHD1_Q8IWZ3_1308_FCELLIHR (UniProt Q8IWZ3) | 0.116 | -0.00815
15 | AMPD3_Q01432_691_LSTCDLCEIAR (UniProt Q01432) | -0.0324 | -0.156
16 | ALDH16A1_Q8IZ83_249_VAFCGAPEEGR (UniProt Q8IZ83) | -0.131 | -0.421
17 | ANKFY1_Q9P2R3_724_HGCDATCWGPGPGGCLQTLLHR (UniProt Q9P2R3) | 0.0967 | 0.124
18 | ANAPC5_Q9UJX4_312_YAALNLAALHCR (UniProt Q9UJX4) | 0.0158 | -0.0174
19 | ALDH16A1_Q8IZ83_467_DPSVPTGGCK (UniProt Q8IZ83) | -0.0757 | -0.217
20 | AK6_Q9Y3D8_122_KLTDNIQCEIFQVLYEEATASYK (UniProt Q9Y3D8) | 0.161 | 0.461
21 | AKAP17A_Q02040_17_AAATIVHDTSEAVELCPAYGLYLK (UniProt Q02040) | 0.304 | 0.379

Row | Target | probe-labelled cysteine peptide fold change (10 µM) | probe-labelled cysteine peptide fold change (50 µM)
22 | AKAP8_O43823_395_IQFACSVCK (UniProt O43823) | 0.0747 | -0.348
23 | ALDH4A1_P30038_95_FCYADK (UniProt P30038) | 0.038 | 0.0641
24 | ANKHD1_Q8IWZ3_1965_QLFACVPK (UniProt Q8IWZ3) | -0.214 | -0.155
25 | ALDOA_P04075_240_PNMVTPGHACTQK (UniProt P04075) | -0.0357 | 0.19
26 | ANAPC11_Q9NYG5_76_WLHAQQVQQHCPMCR (UniProt Q9NYG5) | 0.147 | 0.0305
27 | AKR1B1_P15121_187_YKPAVNQIECHPYLTQEK (UniProt P15121) | -0.131 | -0.266
28 | AIMP1_Q12904_211_MVILLCNLKPAK (UniProt Q12904) | -0.23 | -0.422
29 | ALOX5_P09917_249_CTELPEK (UniProt P09917) | -0.0203 | 0.0505
30 | ALAD_P13716_162_AGCQVVAPSDMMDGR (UniProt P13716) | 0.0174 | 0.0599
31 | ALCAM_Q13740_113_FVCMLVTEDNVFEAPTIVK (UniProt Q13740) | -0.00103 | 0.293
32 | ANAPC4_Q9UJX5_732_VSCVLSSNLR (UniProt Q9UJX5) | 0.202 | 0.0475
33 | ALCAM_Q13740_313_CSLIDKK (UniProt Q13740) | -0.211 | -0.22
34 | AKR7A2_O43488_156_LQCPQVDLFYLHAPDHGTPVEETLHACQR (UniProt O43488) | 0.0687 | -0.0865
35 | ANK2_Q01484_60_GGIDINTCNQNGLNALHLAAK (UniProt Q01484) | -0.0192 | 0.00171
36 | AKAP9_Q99996_836_QQCIQLNEEIEK (UniProt Q99996) | 0.178 | 0.193
37 | ALDH1B1_P30837_169_TIPMDGQHFCFTR (UniProt P30837) | 0.00215 | -0.131
38 | AKAP1_Q92667_147_SIPLECPLSSPK (UniProt Q92667) | -0.399 | -0.569
39 | AGPAT1_Q99943_229_RFTSGQCQVR (UniProt Q99943) | 0.486 | 0.499
40 | ALDH9A1_P49189_45_VIATFTCSGEK (UniProt P49189) | -0.00832 | 0.0216
41 | AKR1B1_P15121_304_VCALLSCTSHK (UniProt P15121) | -0.547 | -2.08
42 | AHNAK_Q09666_2162_LEGDLTGPSVDVEVPDVELECPDAK (UniProt Q09666) | 0.108 | -0.124

Row | Target | probe-labelled cysteine peptide fold change (10 µM) | probe-labelled cysteine peptide fold change (50 µM)
43 | AHCYL1_O43865_392+395_NSCIVCNMGHSNTEIDVTSLR (UniProt O43865) | -0.0155 | -0.571
44 | ANAPC1_Q9H1A4_988_QACEGNLPK (UniProt Q9H1A4) | -0.212 | -0.324
45 | ALDH9A1_P49189_150_REPLGVCVGIGAWNYPFQIASWK (UniProt P49189) | 0.0657 | 0.271
46 | ALDOA_P04075_240_ALSDHHIYLEGTLLKPNMVTPGHACTQK (UniProt P04075) | 0.021 | -0.182
47 | AIP_O00170_254_LVVEEYYEVLDHCSSILNK (UniProt O00170) | -0.102 | -0.0879
48 | AKR1B1_P15121_299_VCALLSCTSHK (UniProt P15121) | -0.208 | -2.38
49 | ALDH1L2_Q3SY69_683_SCAVSNLK (UniProt Q3SY69) | -0.217 | -0.687
50 | ALDH9A1_P49189_267_SPLIIFSDCDMNNAVK (UniProt P49189) | 0.208 | 0.2
51 | ALDH18A1_P54886_88_GDECGLALGR (UniProt P54886) | -0.167 | -0.808
52 | ANAPC2_Q9UJX6_394_LLHPGVNTCDIITLYISAIK (UniProt Q9UJX6) | -0.231 | -0.417
53 | ANKFY1_Q9P2R3_499_WGETPLHTACR (UniProt Q9P2R3) | 0.0766 | 0.0399
54 | ALKBH5_Q6P6C2_100_LFSQDECAK (UniProt Q6P6C2) | -0.000108 | 0.012
55 | AIMP1_Q12904_284_IWEQIQPDLHTNDECVATYK (UniProt Q12904) | -0.256 | 0.333
56 | ALDH18A1_P54886_584_GIPVMGHSEGICHMYVDSEASVDK (UniProt P54886) | -0.172 | -0.241
57 | AKR7A2_O43488_132+156_RLQCPQVDLFYLHAPDHGTPVEETLHACQR (UniProt O43488) | -0.245 | -0.374
58 | ALDH2_P05091_179_HEPVGVCGQIIPWNFPLLMQAWK (UniProt P05091) | 0.0924 | 0.164
59 | ALDH5A1_P51649_272_EVGEAICTDPLVSK (UniProt P51649) | 0.233 | 0.207
60 | ANKFY1_Q9P2R3_995_VLLTECTVDAEAFNLR (UniProt Q9P2R3) | 0.102 | -0.0106
61 | AKR7A2_O43488_132+156_LQCPQVDLFYLHAPDHGTPVEETLHACQR (UniProt O43488) | -0.102 | 0.0726
62 | ALKBH5_Q6P6C2_378_SYESSEDCSEAAGSPARK (UniProt Q6P6C2) | -0.176 | -0.685
63 | ALAS1_P13196_544_NTEVCDELMSR (UniProt P13196) | 0.185 | 0.327

Row | Target | probe-labelled cysteine peptide fold change (10 µM) | probe-labelled cysteine peptide fold change (50 µM)
64 | AGPS_O00116_214_IPDIVLWPTCHDDVVK (UniProt O00116) | 0.00619 | 0.0559
65 | AMACR_Q9UHK6_117_LSGFGQSGSFCR (UniProt Q9UHK6) | -0.119 | -0.0622
66 | ALAS1_P13196_124_GSSVFCK (UniProt P13196) | 0.407 | 0.365
67 | AKR1A1_P14550_46_HIDCAAIYGNEPEIGEALKEDVGPGK (UniProt P14550) | -0.393 | -1.14
68 | ALDH3A2_P51648_425_HSFDTFSHQRPCLLK (UniProt P51648) | -0.192 | -0.43
69 | ALDOA_P04075_339_RALANSLACQGK (UniProt P04075) | -0.187 | -0.104
70 | ALDH5A1_P51649_93_WLPAAATFPVQDPASGAALGMVADCGVR (UniProt P51649) | 0.0442 | 0.976
71 | AHCY_P23526_297_DDAIVCNIGHFDVEIDVK (UniProt P23526) | 0.172 | 0.564
72 | AKAP2_Q9Y2D5_10_MEIEVSVAECK (UniProt Q9Y2D5) | -0.3 | -0.232
73 | AKR1B1_P15121_200_LIQYCQSK (UniProt P15121) | -0.102 | -0.0584
74 | ALKBH3_Q96Q83_201_CPIIASLSFGATR (UniProt Q96Q83) | 0.189 | -0.104
75 | ALDH2_P05091_386_LLCGGGIAADR (UniProt P05091) | -0.131 | -0.106
76 | ALDH18A1_P54886_606+612_CEYPAACNALETLLIHR (UniProt P54886) | 0.202 | -0.341
77 | ALAD_P13716_132_TFPNLLVACDVCLCPYTSHGHCGLLSENGAFR (UniProt P13716) | 0.0644 | -0.235
78 | AHCY_P23526_113_GETDEEYLWCIEQTLYFK (UniProt P23526) | 0.213 | 0.204
79 | ANAPC10_Q9UM13_78_TLCIYADYK (UniProt Q9UM13) | 0.119 | 0.486
80 | AMACR_Q9UHK6_284_AEWCQIFDGTDACVTPVLTFEEVVHHDHNK (UniProt Q9UHK6) | -0.165 | -0.0779
81 | AIFM1_O95831_256_CLIATGGTPR (UniProt O95831) | 0.288 | 0.0894
82 | ANAPC7_Q9UJX3_509_NALANQSDCVLHR (UniProt Q9UJX3) | 0.113 | -0.182
83 | ALS2_Q96Q42_1454_SFCTGK (UniProt Q96Q42) | -0.119 | -0.88

Source: the supplement of paper PMC12067093, “Discovery and optimisation of a covalent ligand for TRIM25 and its application to targeted protein ubiquitination” (Chemical Science, 2025)
